The list shows only some results of the screen, not a fair sample: its compounds were picked by chemical class. Other doses and runs of a compound may be missing. T/C is the treated group as % of the vehicle group. Where survival is the endpoint, the PubChem record calls one and a half times the control and up active, and a quarter to a half above the control has no call in these data; cut-offs in other NCI protocols can differ. Some entries show no survivor count and are marked so; the dose need not have been tolerated. Schedules are NCI's codes, read here as Q, the interval in days (D) or hours (H), X, the number of doses. Some doses were run more than once; their values stand side by side, smallest first. Some schedule codes hold Z or #, which are not explained here.
System: L1210 leukemia ip in BDF1 mice, survival T/C
Assay: NCI In Vivo Anticancer Drug Screen. Data for tumor model L1210 Leukemia (intraperitoneal) in B6D2F1 (BDF1) mice
Settings: T/C endpoint: mean survival time, higher T/C = longer survival

With `ClCCN(CCCl)C12CC3CC(CC(C3)C1)C2` as the compound, how does the T/C (dose: 0.11 mg/kg/injection, schedule: Q01DX009 (ip), vehicle: saline with Tween-80) read?
The T/C was 124 % of control [survivor count not shown].

What about the T/C (dose: 0.16 mg/kg/injection, schedule: Q01DX009 (ip), vehicle: saline with Tween-80) of the same compound?
Its T/C is 137 % of control [survivor count not shown].

And the T/C (dose: 0.25 mg/kg/injection, schedule: Q01DX009 (ip), vehicle: saline with Tween-80)?
The T/C was 113 [survivor count not shown] and 132 % of control [survivor count not shown].

What about the T/C (dose: 0.39 mg/kg/injection, schedule: Q01DX009 (ip), vehicle: saline with Tween-80) of the same compound?
Its T/C is 114 [survivor count not shown], 119 [survivor count not shown], 132 % of control [survivor count not shown].

And the T/C (dose: 0.39 mg/kg/injection, schedule: Q04DX003 (ip), vehicle: saline with Tween-80)?
Its T/C is 107 % of control [survivor count not shown].

What about the T/C (dose: 0.51 mg/kg/injection, schedule: Q01DX009 (ip), vehicle: saline with Tween-80) of the same compound?
Its T/C is 103 % of control [survivor count not shown].

What about the T/C (dose: 0.78 mg/kg/injection, schedule: Q01DX009 (ip), vehicle: saline with Tween-80) of the same compound?
The T/C was 119 [survivor count not shown], 122 [survivor count not shown], 134 % of control [survivor count not shown].

And the T/C (dose: 0.78 mg/kg/injection, schedule: Q04DX003 (ip), vehicle: saline with Tween-80)?
The T/C was 114 % of control [survivor count not shown].

What about the T/C (dose: 1.2 mg/kg/injection, schedule: Q01DX009 (ip), vehicle: saline with Tween-80) of the same compound?
Its T/C is 114 [survivor count not shown] and 141 % of control [survivor count not shown].

And the T/C (dose: 1.56 mg/kg/injection, schedule: Q01DX009 (ip), vehicle: saline with Tween-80)?
Its T/C is 94 % of control [survivor count not shown].

And the T/C (dose: 1.56 mg/kg/injection, schedule: Q04DX003 (ip), vehicle: saline with Tween-80)?
Its T/C is 112 % of control [survivor count not shown].

What about the T/C (dose: 1.7 mg/kg/injection, schedule: Q01DX009 (ip), vehicle: saline with Tween-80) of the same compound?
Its T/C is 121 % of control [survivor count not shown].

For `CN1CCC(OC(=O)C(O)(c2ccccc2)c2ccccc2)CC1`, which T/C (dose: 20.0 mg/kg/injection, schedule: Q01DX009 (ip), vehicle: saline) is on record?
Its T/C is 95 % of control [survivor count not shown].

What about the T/C (dose: 20.0 mg/kg/injection, schedule: Q04DX003 (ip), vehicle: saline) of the same compound?
Its T/C is 100 % of control [survivor count not shown].

What about the T/C (dose: 40.0 mg/kg/injection, schedule: Q01DX009 (ip), vehicle: saline) of the same compound?
Its T/C is 95 % of control [survivor count not shown].

And the T/C (dose: 40.0 mg/kg/injection, schedule: Q04DX003 (ip), vehicle: saline)?
Its T/C is 98 % of control [survivor count not shown].

And the T/C (dose: 80.0 mg/kg/injection, schedule: Q01DX009 (ip), vehicle: saline)?
Its T/C is 103 % of control [survivor count not shown].

And the T/C (dose: 80.0 mg/kg/injection, schedule: Q04DX003 (ip), vehicle: saline)?
Its T/C is 102 % of control [survivor count not shown].

`CC(COC(=O)C(O)(c1ccccc1)c1ccccc1)N(C1CCCC1)C1CCCC1` (stereo not given) was tested. Which T/C (dose: 100.0 mg/kg/injection, schedule: Q04DX003 (ip), vehicle: saline with Tween-80) did it give?
Its T/C is 96 % of control [survivor count not shown].

What about the T/C (dose: 200.0 mg/kg/injection, schedule: Q04DX003 (ip), vehicle: saline with Tween-80) of the same compound?
The T/C was 96 % of control [survivor count not shown].

What about the T/C (dose: 400.0 mg/kg/injection, schedule: Q04DX003 (ip), vehicle: saline with Tween-80) of the same compound?
The T/C was 105 % of control [survivor count not shown].

For `CCNCCCl`, which T/C (dose: 100.0 mg/kg/injection, schedule: Q01DX001 (ip), vehicle: saline) is on record?
Its T/C is 98 % of control [survivor count not shown].

And the T/C (dose: 200.0 mg/kg/injection, schedule: Q01DX001 (ip), vehicle: saline)?
The T/C was 102 % of control [survivor count not shown].

What about the T/C (dose: 400.0 mg/kg/injection, schedule: Q01DX001 (ip), vehicle: saline) of the same compound?
The T/C was 111 % of control [survivor count not shown].

For `CN(CCBr)CCBr`, which T/C (dose: 0.01 mg/kg/injection, schedule: Q01DX015 (ip), vehicle: saline) is on record?
The T/C was 116 % of control [survivor count not shown].

What about the T/C (dose: 0.02 mg/kg/injection, schedule: Q01DX015 (ip), vehicle: saline) of the same compound?
The T/C was 132 % of control [survivor count not shown].

And the T/C (dose: 0.04 mg/kg/injection, schedule: Q01DX015 (ip), vehicle: saline)?
The T/C was 122 % of control [survivor count not shown].

And the T/C (dose: 0.08 mg/kg/injection, schedule: Q01DX015 (ip), vehicle: saline)?
The T/C was 143 % of control [survivor count not shown].

What about the T/C (dose: 0.08 mg/kg/injection, schedule: Q01DX Z (ip), vehicle: saline) of the same compound?
Its T/C is 122 % of control [survivor count not shown].

And the T/C (dose: 0.16 mg/kg/injection, schedule: Q01DX015 (ip), vehicle: saline)?
Its T/C is 135 % of control [survivor count not shown].

And the T/C (dose: 0.16 mg/kg/injection, schedule: Q01DX Z (ip), vehicle: saline)?
Its T/C is 125 % of control [survivor count not shown].

And the T/C (dose: 0.31 mg/kg/injection, schedule: Q01DX015 (ip), vehicle: saline)?
The T/C was 120 % of control [survivor count not shown].

And the T/C (dose: 0.31 mg/kg/injection, schedule: Q01DX Z (ip), vehicle: saline)?
The T/C was 153 % of control [survivor count not shown].

And the T/C (dose: 0.62 mg/kg/injection, schedule: Q01DX015 (ip), vehicle: saline)?
Its T/C is 88 % of control [survivor count not shown].

What about the T/C (dose: 0.62 mg/kg/injection, schedule: Q01DX Z (ip), vehicle: saline) of the same compound?
Its T/C is 154 % of control [survivor count not shown].
